According to paper PMC6901529:
These are yes or no findings as the source states them, for the method shown. Binding seen in cells or lysates may run through a third protein. Some results given as binding are weak or reduced against the parent protein; the word gives no strength. For part of these data: Tags and fused reporters may be left off the sequences shown.

Protein sequences, listed by entry. Tags and fused reporters are not part of them. Lines headed by an entry give the natural chain unless they say otherwise; changes in a name come on top. Residues count along the entry.
UniProt Q96GD4: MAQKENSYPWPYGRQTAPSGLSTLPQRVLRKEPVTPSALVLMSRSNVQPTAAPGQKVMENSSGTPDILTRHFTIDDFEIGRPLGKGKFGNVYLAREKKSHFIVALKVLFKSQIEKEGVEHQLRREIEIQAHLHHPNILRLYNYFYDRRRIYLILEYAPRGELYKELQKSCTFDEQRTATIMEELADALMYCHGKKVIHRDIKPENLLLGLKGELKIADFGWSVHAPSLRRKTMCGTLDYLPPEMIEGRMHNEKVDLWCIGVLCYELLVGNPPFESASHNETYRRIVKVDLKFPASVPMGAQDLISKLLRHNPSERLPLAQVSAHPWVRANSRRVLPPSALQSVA
UniProt O55099: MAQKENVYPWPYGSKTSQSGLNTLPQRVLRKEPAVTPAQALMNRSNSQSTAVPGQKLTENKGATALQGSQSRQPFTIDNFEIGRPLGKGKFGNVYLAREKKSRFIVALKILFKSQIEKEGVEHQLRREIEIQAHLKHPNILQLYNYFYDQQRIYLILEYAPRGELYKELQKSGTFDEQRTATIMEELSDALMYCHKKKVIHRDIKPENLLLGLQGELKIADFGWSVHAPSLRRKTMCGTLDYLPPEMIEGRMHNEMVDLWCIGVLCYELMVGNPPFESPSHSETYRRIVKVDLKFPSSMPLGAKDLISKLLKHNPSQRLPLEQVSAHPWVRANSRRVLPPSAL
UniProt Q9NQS7, residues 803-918: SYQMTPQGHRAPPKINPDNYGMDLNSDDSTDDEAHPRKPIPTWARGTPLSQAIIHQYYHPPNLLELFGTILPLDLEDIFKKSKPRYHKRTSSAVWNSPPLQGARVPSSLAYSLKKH

B1: His-tagged IN-box (amino acids 786-876) of mouse INCENP (domain or fragment, UniProt Q9WU62 786-876)
chain: SVDDYGMDLNSDDSTDDESHPRKPIPSWAKGTQLSQAIVHQYYHPPNILELFGSILPLDLEDIFKKRKTRYHKRTSSAVWNSPPLKATMVP

Assays:
[1] = biological target: Flag-tagged human Aurora B, wild-type (full-length) (human) (UniProt Q96GD4); assay: co-IP; purified Flag-tagged Aurora B mixed with 293T extracts containing HA-tagged INCENP (IN-box polypeptide); immunoprecipitated with anti-Flag antibody; HA-INCENP detected by western blotting with anti-HA antibody; only the target purified
[2] = biological target: GST-tagged rat Aurora B, kinase-dead [K109R] (rat) (UniProt O55099); assay: pull-down; GST-Aurora B (rat) and His-tagged INCENP IN-box (mouse) co-expressed in Sf9 cells by co-infection of baculoviruses; complex purified by affinity chromatography on glutathione-sepharose 4B
[3] = biological target: GST-tagged rat Aurora B, wild-type (rat) (UniProt O55099); assay: as above

| Molecule | binding [1] | binding [2] | binding [3] |
| --- | --- | --- | --- |
| HA-tagged INCENP (IN-box polypeptide; amino acids 803-918) (from UniProt Q9NQS7 803-918) (domain or fragment) | binds |  |  |
| B1 |  | binds | binds |
